Reference: paper doi:10.1101/2025.06.23.660276
These are yes or no findings as the source states them, for the method shown. Some entries that bind do so weakly or less than the wild type. For some assays here: Sequences can lack the tags named with a protein.

Key:
[1] = target: 3xFLAG-tagged TAF12L (C. albicans); assay: RNA immunoprecipitation with RT-qPCR; anti-FLAG M2 affinity gel on polysome-containing extracts of cells treated with 1mg/ml cycloheximide (puromycin-treated extracts as control), 4h at 4°C, washes with 350mM KCl; the partner's mRNA is measured as percent input
TAF12-FLAG (C. albicans) = target: T1, TAF12-FLAG (C. albicans) (UniProt Q5ADM2); assay: as above
T1 sequence: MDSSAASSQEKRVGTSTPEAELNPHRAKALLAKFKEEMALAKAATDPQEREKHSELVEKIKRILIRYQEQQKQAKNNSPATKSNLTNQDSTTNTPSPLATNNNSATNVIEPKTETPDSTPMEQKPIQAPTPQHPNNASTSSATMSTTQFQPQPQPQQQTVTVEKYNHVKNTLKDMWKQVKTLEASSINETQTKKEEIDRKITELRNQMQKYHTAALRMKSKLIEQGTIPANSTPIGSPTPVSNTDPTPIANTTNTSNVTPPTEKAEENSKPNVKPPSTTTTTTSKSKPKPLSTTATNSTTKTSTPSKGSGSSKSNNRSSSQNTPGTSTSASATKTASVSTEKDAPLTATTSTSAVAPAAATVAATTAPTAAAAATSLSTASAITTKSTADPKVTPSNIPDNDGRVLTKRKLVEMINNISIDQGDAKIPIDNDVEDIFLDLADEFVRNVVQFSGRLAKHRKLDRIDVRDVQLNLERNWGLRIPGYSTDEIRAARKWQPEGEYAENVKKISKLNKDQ

B1: nascent ribosome-associated Ada1 (protein, UniProt Q5AEG1 1-490)
chain: MTSQIADGSSTTTINPLKNGLAALKPTHQAHGTSTTTHLTNGSPKKIKSYKRLELERLIREFQNKLGKNWEKYHETLSLFLIGKLSRAELISTITPILKGKNLLKYHNKLLLLNFANSLKDNSSDLSTEFAGFWNKKAGKVTKNKNTQFERFKSVIMGLPVKERKRIIDISRDSGKKGKIATDIILTRHAILPKIPMIQDKEQQQLQVNNLVQWQQDVLNGINTPIATENYEIPDYDNLSRMMLMIMREHGLTGGLNPGVMEVMLLGLESHLKNIVETAIDVAKYRKNKYTNDNYIPYIKPNEDAQNISNENALPSSKDITLCIEDLHDTLEMYPHLVESEGPKLRLSNVMLENDDMINDDLNYYLPPKSIEYLAKERQAATTNDASTGTTKPGNNKGSSAGGSSAGATTNSPVVNKTDSTAAVSEKTDTNQPLQTPTATQTPVQTSAQAPASAPAQTPAPVSTPILRPDAHIGTTDELKWVLHDLVSTM
binding [1]: binds

B2: nascent TAF4 (protein, UniProt Q59U67 1-363)
chain: MTSTPQESSNLKRQLENSEDSSSPNKKSKTETTTENQSSWESDFNSLPVELLQTETNGTSPAPAPATPIDTTNVSNSKERDQDTSKLNDAIAAAGVDIQQEEEILLQQQLNRKSAEGMASNLKSVIRSSKSPPFLHNYHLAAFIDKVAKQNGIQQNFLMDGEMLELISAACETWLSNLATKTIILSRHRRRGIPVINKKSGSSSVPRSEISKELRSLALKQKEMEEKRVNKRVMLGLEKSTKDASKNDENGESKAGAEETLHRAANATAAMMTMNPGRKKYSWMTSSATAGGGSDFGKSSGGSSKDSGKHQSPIISVRGDNGLRFREIRSGNSIIMKDLLGAIEDEKMGTRNAVIKGYAKLKD
binding (TAF12-FLAG (C. albicans)): binds
